For the assay, the target named is T1, eIF(iso)4E (Arabidopsis (endogenous in Arabidopsis plants)) (UniProt O04663).
T1 sequence: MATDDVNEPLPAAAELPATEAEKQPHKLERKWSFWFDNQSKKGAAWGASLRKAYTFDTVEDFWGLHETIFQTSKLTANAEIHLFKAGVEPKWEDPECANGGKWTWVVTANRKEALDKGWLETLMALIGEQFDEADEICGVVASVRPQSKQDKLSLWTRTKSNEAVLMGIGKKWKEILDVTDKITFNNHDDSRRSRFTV
In words: affinity purification with mass spectrometry.

By UniProt entry, the sequences of proteins in these tests, tags left out.
UniProt Q76E23: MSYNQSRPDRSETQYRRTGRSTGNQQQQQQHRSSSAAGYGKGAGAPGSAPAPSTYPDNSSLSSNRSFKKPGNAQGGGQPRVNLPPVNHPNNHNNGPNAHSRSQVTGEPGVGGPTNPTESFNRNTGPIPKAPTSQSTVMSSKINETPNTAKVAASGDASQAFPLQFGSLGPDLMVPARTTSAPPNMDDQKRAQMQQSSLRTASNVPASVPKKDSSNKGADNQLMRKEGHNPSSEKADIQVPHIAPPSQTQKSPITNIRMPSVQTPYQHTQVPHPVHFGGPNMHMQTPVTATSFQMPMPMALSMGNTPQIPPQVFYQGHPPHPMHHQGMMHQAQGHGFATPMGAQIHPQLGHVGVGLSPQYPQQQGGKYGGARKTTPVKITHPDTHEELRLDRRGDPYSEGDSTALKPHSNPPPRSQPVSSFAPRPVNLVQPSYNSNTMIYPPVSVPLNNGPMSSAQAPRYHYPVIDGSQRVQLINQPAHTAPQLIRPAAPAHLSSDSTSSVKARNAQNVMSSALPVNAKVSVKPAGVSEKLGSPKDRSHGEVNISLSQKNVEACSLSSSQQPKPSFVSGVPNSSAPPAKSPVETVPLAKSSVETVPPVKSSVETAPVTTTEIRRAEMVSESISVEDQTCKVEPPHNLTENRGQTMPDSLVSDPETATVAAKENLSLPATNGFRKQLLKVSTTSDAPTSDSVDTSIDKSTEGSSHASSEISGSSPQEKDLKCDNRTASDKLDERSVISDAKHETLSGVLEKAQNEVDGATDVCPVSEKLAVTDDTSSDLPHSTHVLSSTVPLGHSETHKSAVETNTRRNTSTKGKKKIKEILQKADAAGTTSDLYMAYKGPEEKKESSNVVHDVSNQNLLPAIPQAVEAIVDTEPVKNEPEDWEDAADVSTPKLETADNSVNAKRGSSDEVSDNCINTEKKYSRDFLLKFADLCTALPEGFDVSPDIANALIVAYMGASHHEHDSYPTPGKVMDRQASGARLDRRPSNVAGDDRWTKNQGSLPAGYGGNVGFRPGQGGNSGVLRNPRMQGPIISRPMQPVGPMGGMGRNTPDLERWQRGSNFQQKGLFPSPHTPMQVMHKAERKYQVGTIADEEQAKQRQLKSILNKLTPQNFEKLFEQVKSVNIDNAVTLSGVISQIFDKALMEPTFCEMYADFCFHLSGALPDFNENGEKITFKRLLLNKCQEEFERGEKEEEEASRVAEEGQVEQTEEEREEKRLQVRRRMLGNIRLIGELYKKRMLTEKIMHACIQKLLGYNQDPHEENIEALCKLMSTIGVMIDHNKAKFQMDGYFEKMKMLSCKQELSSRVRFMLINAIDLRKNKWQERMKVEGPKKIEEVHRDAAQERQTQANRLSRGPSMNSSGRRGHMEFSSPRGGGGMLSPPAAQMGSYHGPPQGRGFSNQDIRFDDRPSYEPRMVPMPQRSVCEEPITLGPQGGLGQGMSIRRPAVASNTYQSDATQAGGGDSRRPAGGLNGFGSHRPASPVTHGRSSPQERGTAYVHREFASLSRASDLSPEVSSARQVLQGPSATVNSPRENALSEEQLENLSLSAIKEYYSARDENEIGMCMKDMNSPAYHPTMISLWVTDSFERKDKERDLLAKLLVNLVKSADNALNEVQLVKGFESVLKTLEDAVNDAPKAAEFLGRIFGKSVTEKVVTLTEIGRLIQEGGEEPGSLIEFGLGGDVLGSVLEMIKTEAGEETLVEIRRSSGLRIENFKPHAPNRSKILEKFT

These are yes or no findings as the source states them, for the method shown. Binding seen in cells or lysates may run through a third protein. Here binding means that the protein was enriched with, or labelled near, the bait; the list need not be complete. A no says only that the protein was not detected with the bait.

Regarding eIF4G (from UniProt Q76E23 1-1727), the binding result was “no binding”.

Values taken from article doi:10.1101/2023.02.16.528822.
